Reference: the supplement of paper PMC8426693
Some of the results follow.

Key:
Assay in all cases: NMR binding call after quantification (hit when 2 of 3 NMR criteria are met) (binary (1 = binding, 0 = not binding)); higher = binding
Settings in all cases: RNA concentration 10 µM; fragment concentration 200 µM; 293 K
SARS-CoV-2 5_SL7 RNA = test system: SARS-CoV-2 5_SL7 RNA
SARS-CoV-2 5_SL8 RNA = test system: SARS-CoV-2 5_SL8 RNA
[1] = test system: SARS-CoV-2 attenuator hairpin (att HP) RNA
[2] = test system: SARS-CoV-2 frameshift pseudoknot (PK) RNA

Measured: NMR binding call

c1cnc(N2CCC3(CCOC3)C2)cn1 (stereo not given)
0: SARS-CoV-2 5_SL7 RNA | SARS-CoV-2 5_SL8 RNA | [1] | [2]

OCCN1CCOCC1
0: SARS-CoV-2 5_SL7 RNA | SARS-CoV-2 5_SL8 RNA | [1] | [2]

CC(=O)Nc1ccc(NC(=O)C2CC2(C)C)cc1 (stereo not given)
0: SARS-CoV-2 5_SL7 RNA | SARS-CoV-2 5_SL8 RNA | [1] | [2]

Oc1cccc(CN2CCSCC2)c1
0: SARS-CoV-2 5_SL7 RNA | SARS-CoV-2 5_SL8 RNA | [1] | [2]

CN1CCCC1CO (stereo not given)
0: SARS-CoV-2 5_SL7 RNA | SARS-CoV-2 5_SL8 RNA | [1] | [2]

CC(=O)N1CCCC2(CCCCCC2)C1
0: SARS-CoV-2 5_SL7 RNA | SARS-CoV-2 5_SL8 RNA | [1] | [2]

Nc1ccccc1OCc1ccccc1
0: SARS-CoV-2 5_SL7 RNA | SARS-CoV-2 5_SL8 RNA | [1] | [2]

Cc1n[nH]c(C)c1S(=O)(=O)N(C)C
0: SARS-CoV-2 5_SL7 RNA | SARS-CoV-2 5_SL8 RNA | [1] | [2]

CCOc1ccc(C(C)N)cc1.Cl (stereo not given)
0: SARS-CoV-2 5_SL7 RNA | SARS-CoV-2 5_SL8 RNA | [1] | [2]

Fetched one by one from the entries so far (two):
CC(=O)Nc1ccc(NC(=O)C2CC2(C)C)cc1 (stereo not given)
0: SARS-CoV-2 5_SL7 RNA | SARS-CoV-2 5_SL8 RNA | [1] | [2]

Oc1cccc(CN2CCSCC2)c1
0: SARS-CoV-2 5_SL7 RNA | SARS-CoV-2 5_SL8 RNA | [1] | [2]

(list continues)

COc1ccc(NCc2ccc(F)cc2)cc1
0: SARS-CoV-2 5_SL7 RNA | SARS-CoV-2 5_SL8 RNA | [1] | [2]

CC(NC1CC1)c1cccnc1 (stereo not given)
0: SARS-CoV-2 5_SL7 RNA | SARS-CoV-2 5_SL8 RNA | [1] | [2]

CC1COCCN1Cc1ccccc1F (stereo not given)
0: SARS-CoV-2 5_SL7 RNA | SARS-CoV-2 5_SL8 RNA | [1] | [2]

CN(C)C(=O)CNc1ccccc1
0: SARS-CoV-2 5_SL7 RNA | SARS-CoV-2 5_SL8 RNA | [1] | [2]

CCCC(=O)Nc1cccnc1Cl
0: SARS-CoV-2 5_SL7 RNA | SARS-CoV-2 5_SL8 RNA | [1] | [2]

CS(=O)(=O)N1CCN(Cc2ccco2)CC1.O=C(O)C(=O)O
0: SARS-CoV-2 5_SL7 RNA | SARS-CoV-2 5_SL8 RNA | [1] | [2]

CC(=O)N1CCC(N)CC1
0: SARS-CoV-2 5_SL7 RNA | SARS-CoV-2 5_SL8 RNA | [1] | [2]

Cc1cncc(NCc2ccncc2)c1
0: SARS-CoV-2 5_SL7 RNA | SARS-CoV-2 5_SL8 RNA | [1] | [2]

CN1CCN(CCN)CC1(C)C
0: SARS-CoV-2 5_SL7 RNA | SARS-CoV-2 5_SL8 RNA | [1] | [2]

CC(=O)NCc1cn[nH]c1
0: SARS-CoV-2 5_SL7 RNA | SARS-CoV-2 5_SL8 RNA | [1] | [2]

COc1ccc(C(N)c2ccccc2)cc1.Cl (stereo not given)
0: SARS-CoV-2 5_SL7 RNA | SARS-CoV-2 5_SL8 RNA | [1] | [2]

Cc1noc(CN2CCC(CO)CC2)n1
0: SARS-CoV-2 5_SL7 RNA | SARS-CoV-2 5_SL8 RNA | [1] | [2]

CCc1ccc(NC(=O)c2cnccn2)cc1
0: SARS-CoV-2 5_SL7 RNA | SARS-CoV-2 5_SL8 RNA | [1] | [2]

CC(=O)Nc1ccc(Nc2ccccc2)cc1
0: SARS-CoV-2 5_SL7 RNA | SARS-CoV-2 5_SL8 RNA | [1] | [2]

Cn1cc(Cl)c(C(=O)NC2CCCC2)n1
0: SARS-CoV-2 5_SL7 RNA | SARS-CoV-2 5_SL8 RNA | [1] | [2]

CCOc1ccc(CC(=O)O)cc1
0: SARS-CoV-2 5_SL7 RNA | SARS-CoV-2 5_SL8 RNA | [1] | [2]
